This experiment deals with T1, human ASIC1a C-terminally fused to eGFP (human) (UniProt P78348).
T1 sequence: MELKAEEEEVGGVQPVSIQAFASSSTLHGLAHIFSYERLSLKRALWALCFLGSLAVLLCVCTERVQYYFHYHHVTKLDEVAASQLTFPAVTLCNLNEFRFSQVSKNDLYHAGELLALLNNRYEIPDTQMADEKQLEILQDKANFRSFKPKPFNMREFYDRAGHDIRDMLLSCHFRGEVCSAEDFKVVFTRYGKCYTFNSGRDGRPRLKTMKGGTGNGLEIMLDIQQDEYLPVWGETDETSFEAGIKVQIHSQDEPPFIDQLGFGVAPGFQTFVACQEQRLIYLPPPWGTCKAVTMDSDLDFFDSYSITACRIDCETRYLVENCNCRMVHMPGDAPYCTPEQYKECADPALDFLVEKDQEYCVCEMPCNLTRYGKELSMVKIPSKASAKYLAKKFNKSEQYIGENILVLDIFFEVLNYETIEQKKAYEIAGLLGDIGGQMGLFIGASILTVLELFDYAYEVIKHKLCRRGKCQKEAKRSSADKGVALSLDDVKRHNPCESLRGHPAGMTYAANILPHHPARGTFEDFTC
In words: affinity purification with mass spectrometry.

Results are given in words; binding and its absence hold for the method and conditions named. Binding seen in cells or lysates may run through a third protein. Here binding means that the protein was enriched with, or labelled near, the bait; the list need not be complete. Sequences can lack the tags named with a protein.

B1: human monocarboxylate transporter 1 (MCT1), endogenous (protein, UniProt P53985 1-500)
chain: MPPAVGGPVGYTPPDGGWGWAVVIGAFISIGFSYAFPKSITVFFKEIEGIFHATTSEVSWISSIMLAVMYGGGPISSILVNKYGSRIVMIVGGCLSGCGLIAASFCNTVQQLYVCIGVIGGLGLAFNLNPALTMIGKYFYKRRPLANGLAMAGSPVFLCTLAPLNQVFFGIFGWRGSFLILGGLLLNCCVAGALMRPIGPKPTKAGKDKSKASLEKAGKSGVKKDLHDANTDLIGRHPKQEKRSVFQTINQFLDLTLFTHRGFLLYLSGNVIMFFGLFAPLVFLSSYGKSQHYSSEKSAFLLSILAFVDMVARPSMGLVANTKPIRPRIQYFFAASVVANGVCHMLAPLSTTYVGFCVYAGFFGFAFGWLSSVLFETLMDLVGPQRFSSAVGLVTIVECCPVLLGPPLLGRLNDMYGDYKYTYWACGVVLIISGIYLFIGMGINYRLLAKEQKANEQKKESKEEETSIDVAGKPNEVTKAAESPDQKDTDGGPKEEESPV
Regarding B1, the binding entry is “binds”.
